This assay has as its target T1, IκB kinase complex-associated protein (IKAP) (human (endogenous in HEK 293nt)) (UniProt O95163).
T1 sequence: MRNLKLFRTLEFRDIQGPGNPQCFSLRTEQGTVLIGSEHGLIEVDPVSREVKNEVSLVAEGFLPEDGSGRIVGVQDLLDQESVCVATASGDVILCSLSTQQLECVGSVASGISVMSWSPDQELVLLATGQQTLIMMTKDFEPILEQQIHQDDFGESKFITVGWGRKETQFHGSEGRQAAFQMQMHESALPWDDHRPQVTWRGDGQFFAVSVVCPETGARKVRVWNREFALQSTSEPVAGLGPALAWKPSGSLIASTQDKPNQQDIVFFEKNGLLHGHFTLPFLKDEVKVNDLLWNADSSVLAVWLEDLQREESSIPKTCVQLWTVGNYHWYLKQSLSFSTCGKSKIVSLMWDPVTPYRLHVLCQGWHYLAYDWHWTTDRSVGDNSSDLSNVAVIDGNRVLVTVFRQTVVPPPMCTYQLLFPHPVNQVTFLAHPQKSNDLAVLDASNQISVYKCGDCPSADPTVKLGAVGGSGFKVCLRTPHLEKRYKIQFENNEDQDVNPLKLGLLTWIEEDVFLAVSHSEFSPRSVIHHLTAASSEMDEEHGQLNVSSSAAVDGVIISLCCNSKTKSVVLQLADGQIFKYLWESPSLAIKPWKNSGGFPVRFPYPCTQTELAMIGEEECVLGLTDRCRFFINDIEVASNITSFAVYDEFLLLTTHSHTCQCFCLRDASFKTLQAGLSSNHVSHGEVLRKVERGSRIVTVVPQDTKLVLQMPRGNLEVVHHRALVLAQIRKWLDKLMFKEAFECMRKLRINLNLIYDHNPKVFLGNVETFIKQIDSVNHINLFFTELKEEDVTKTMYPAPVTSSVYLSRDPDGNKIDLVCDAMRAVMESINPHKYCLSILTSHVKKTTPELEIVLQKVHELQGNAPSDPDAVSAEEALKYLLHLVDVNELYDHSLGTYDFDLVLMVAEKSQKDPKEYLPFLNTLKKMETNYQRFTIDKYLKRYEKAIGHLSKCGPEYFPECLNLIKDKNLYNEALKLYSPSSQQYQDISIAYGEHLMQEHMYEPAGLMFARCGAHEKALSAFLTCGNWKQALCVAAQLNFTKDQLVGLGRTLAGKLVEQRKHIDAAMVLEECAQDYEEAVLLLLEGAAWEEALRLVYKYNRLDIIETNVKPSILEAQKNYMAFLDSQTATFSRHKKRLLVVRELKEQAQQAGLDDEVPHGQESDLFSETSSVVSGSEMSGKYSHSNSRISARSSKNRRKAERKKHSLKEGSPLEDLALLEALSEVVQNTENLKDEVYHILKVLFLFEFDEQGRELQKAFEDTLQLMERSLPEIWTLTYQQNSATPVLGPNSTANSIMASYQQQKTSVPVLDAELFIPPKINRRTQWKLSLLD
The assay is described as follows: co-IP; endogenous IKAP precipitated with anti-IKAP antibody on protein A Dynabeads from HEK 293nt lysate; cells crosslinked with 0.1% formaldehyde, sonicated; IP buffer 50 mM HEPES pH 7.6, 500 mM LiCl, 1 mM EDTA, 0.7% DOC, 1% NP-40, 0.1% SDS; 12 h at 4°C; western blot. (In general: In western blotting, separated proteins are transferred to a membrane and probed.)

By UniProt entry, the sequences of proteins in these tests, tags left out.
UniProt Q9UBN7: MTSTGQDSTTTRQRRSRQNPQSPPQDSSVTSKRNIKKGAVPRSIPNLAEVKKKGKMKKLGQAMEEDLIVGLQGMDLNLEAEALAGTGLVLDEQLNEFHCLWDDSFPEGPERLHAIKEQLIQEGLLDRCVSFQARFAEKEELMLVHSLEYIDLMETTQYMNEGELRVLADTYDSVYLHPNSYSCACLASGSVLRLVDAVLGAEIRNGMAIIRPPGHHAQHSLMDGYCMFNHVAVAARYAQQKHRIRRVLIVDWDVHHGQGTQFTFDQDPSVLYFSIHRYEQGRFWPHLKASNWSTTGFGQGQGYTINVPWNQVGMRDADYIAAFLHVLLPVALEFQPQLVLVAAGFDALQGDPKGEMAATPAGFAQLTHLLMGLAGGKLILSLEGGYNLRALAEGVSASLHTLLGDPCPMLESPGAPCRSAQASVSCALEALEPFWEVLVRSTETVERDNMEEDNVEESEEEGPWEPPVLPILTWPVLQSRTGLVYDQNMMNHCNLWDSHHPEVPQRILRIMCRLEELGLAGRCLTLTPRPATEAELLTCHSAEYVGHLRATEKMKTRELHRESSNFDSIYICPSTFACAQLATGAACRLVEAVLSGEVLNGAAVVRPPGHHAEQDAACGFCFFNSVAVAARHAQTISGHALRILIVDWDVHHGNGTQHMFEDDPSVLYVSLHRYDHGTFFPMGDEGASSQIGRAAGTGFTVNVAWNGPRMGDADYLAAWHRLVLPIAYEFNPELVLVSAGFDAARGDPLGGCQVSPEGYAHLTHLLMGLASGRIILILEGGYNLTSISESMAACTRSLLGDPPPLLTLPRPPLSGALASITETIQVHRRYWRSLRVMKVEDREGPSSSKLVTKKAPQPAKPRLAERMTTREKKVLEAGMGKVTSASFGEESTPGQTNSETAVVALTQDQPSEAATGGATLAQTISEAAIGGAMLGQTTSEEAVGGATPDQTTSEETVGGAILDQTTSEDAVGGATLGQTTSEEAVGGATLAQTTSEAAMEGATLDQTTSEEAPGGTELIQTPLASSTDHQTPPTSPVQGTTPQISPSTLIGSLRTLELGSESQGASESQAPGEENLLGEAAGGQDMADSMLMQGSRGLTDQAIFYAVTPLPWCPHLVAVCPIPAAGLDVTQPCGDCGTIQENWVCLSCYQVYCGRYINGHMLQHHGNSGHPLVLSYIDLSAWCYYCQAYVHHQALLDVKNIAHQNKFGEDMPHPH

These are yes or no findings as the source states them, for the method shown. Binding seen in cells or lysates may run through a third protein. Some entries that bind do so weakly or less than the wild type.

With “histone deacetylase 6 (HDAC6) (from UniProt Q9UBN7 1-1215) (enzyme)”, the binding entry is reported as “binds”.

These data come from article PMC5172536.
